Data: paper doi:10.1101/2024.08.18.608516
Read-outs that look alike come from different tables or passages of the source. Results are given in words; binding and its absence hold for the method and conditions named. Binding seen in cells or lysates may run through a third protein. Binding can be weak; no strength is given. For some assays here: Tags and fused reporters may be left off the sequences shown. One block for each molecule: values may come before it.

Chains of the proteins cited; added tags and fusions are not shown. Lines headed by an entry give the natural chain unless they say otherwise; changes in a name come on top.
UniProt Q8IXJ9, whole entry, stated change not applied: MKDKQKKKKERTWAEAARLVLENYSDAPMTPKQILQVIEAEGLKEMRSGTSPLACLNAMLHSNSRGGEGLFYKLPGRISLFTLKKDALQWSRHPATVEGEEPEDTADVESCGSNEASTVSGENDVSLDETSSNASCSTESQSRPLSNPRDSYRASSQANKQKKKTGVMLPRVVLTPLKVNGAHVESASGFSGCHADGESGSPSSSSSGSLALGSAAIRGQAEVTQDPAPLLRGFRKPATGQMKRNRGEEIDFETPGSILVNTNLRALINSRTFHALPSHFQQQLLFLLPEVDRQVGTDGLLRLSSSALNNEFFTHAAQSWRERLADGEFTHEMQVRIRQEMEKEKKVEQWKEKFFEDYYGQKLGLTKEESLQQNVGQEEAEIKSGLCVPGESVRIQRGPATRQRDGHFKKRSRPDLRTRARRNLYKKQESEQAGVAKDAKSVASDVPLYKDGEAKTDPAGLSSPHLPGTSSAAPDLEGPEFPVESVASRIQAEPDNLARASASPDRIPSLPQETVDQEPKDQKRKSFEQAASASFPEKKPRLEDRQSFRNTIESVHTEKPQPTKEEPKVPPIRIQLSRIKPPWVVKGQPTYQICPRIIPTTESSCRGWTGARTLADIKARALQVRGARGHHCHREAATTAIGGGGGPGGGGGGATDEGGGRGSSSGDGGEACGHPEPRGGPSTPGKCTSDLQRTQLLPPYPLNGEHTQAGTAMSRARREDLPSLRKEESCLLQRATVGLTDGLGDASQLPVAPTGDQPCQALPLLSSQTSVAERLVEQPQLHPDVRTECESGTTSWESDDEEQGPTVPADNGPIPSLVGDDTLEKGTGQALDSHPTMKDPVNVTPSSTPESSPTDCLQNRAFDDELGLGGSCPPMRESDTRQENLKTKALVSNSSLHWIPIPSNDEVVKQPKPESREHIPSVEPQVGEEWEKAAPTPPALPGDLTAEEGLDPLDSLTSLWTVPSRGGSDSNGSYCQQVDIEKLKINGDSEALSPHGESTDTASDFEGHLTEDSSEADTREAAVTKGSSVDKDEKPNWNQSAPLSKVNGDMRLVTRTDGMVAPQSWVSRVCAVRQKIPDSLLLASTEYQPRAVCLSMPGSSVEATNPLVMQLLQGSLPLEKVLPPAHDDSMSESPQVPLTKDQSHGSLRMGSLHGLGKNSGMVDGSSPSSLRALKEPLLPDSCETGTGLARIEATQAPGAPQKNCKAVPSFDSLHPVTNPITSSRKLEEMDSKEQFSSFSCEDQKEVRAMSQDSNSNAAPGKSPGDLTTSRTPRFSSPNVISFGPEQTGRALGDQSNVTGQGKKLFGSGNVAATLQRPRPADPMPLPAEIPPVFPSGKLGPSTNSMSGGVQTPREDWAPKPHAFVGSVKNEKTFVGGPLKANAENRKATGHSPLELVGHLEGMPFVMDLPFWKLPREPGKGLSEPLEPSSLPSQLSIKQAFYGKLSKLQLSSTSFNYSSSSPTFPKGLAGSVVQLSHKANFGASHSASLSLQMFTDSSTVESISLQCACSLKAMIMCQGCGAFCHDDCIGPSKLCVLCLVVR

What was measured:
Assay in all cases: co-IP
[1] = target: 3xFLAG-ASXL1-WT (wild-type ASXL1) (UniProt Q8IXJ9)
[2] = target: 3xFLAG-ASXL1-MT (C-terminally truncated mutant ASXL1)
[3] = target: 3xFLAG-ASXL1-CT (C-terminal side of ASXL1)
[4] = target: 3xFLAG-ASXL1-MT (C-terminally truncated mutant ASXL1); remark: listed apart in the source

binding [1]: binds
Molecule: TAK1-K63W (from UniProt Q62073)

binding [2]: no binding
B1: HA-tagged TAB2 (protein, UniProt Q9NYJ8 1-693)
chain: MAQGSHQIDFQVLHDLRQKFPEVPEVVVSRCMLQNNNNLDACCAVLSQESTRYLYGEGDLNFSDDSGISGLRNHMTSLNLDLQSQNIYHHGREGSRMNGSRTLTHSISDGQLQGGQSNSELFQQEPQTAPAQVPQGFNVFGMSSSSGASNSAPHLGFHLGSKGTSSLSQQTPRFNPIMVTLAPNIQTGRNTPTSLHIHGVPPPVLNSPQGNSIYIRPYITTPGGTTRQTQQHSGWVSQFNPMNPQQVYQPSQPGPWTTCPASNPLSHTSSQQPNQQGHQTSHVYMPISSPTTSQPPTIHSSGSSQSSAHSQYNIQNISTGPRKNQIEIKLEPPQRNNSSKLRSSGPRTSSTSSSVNSQTLNRNQPTVYIAASPPNTDELMSRSQPKVYISANAATGDEQVMRNQPTLFISTNSGASAASRNMSGQVSMGPAFIHHHPPKSRAIGNNSATSPRVVVTQPNTKYTFKITVSPNKPPAVSPGVVSPTFELTNLLNHPDHYVETENIQHLTDPTLAHVDRISETRKLSMGSDDAAYTQALLVHQKARMERLQRELEIQKKKLDKLKSEVNEMENNLTRRRLKRSNSISQIPSLEEMQQLRSCNRQLQIDIDCLTKEIDLFQARGPHFNPSAIHNFYDNIGFVGPVPPKPKDQRSIIKTPKTQDTEDDEGAQWNCTACTFLNHPALIRCEQCEMPRHF

binding [3]: binds
binding [4]: binds
binding [2]: binds
B2: HA-Tak1 (protein, UniProt Q62073 1-579)
chain: MSTASAASSSSSSSASEMIEAPSQVLNFEEIDYKEIEVEEVVGRGAFGVVCKAKWRAKDVAIKQIESESERKAFIVELRQLSRVNHPNIVKLYGACLNPVCLVMEYAEGGSLYNVLHGAEPLPYYTAAHAMSWCLQCSQGVAYLHSMQPKALIHRDLKPPNLLLVAGGTVLKICDFGTACDIQTHMTNNKGSAAWMAPEVFEGSNYSEKCDVFSWGIILWEVITRRKPFDEIGGPAFRIMWAVHNGTRPPLIKNLPKPIESLMTRCWSKDPSQRPSMEEIVKIMTHLMRYFPGADEPLQYPCQYSDEGQSNSATSTGSFMDIASTNTSNKSDTNMEQVPATNDTIKRLESKLLKNQAKQQSESGRLSLGASRGSSVESLPPTSEGKRMSADMSEIEARIVATAGNGQPRRRSIQDLTVTGTEPGQVSSRSSSPSVRMITTSGPTSEKPARSHPWTPDDSTDTNGSDNSIPMAYLTLDHQLQPLAPCPNSKESMAVFEQHCKMAQEYMKVQTEIALLLQRKQELVAELDQDEKDQQNTSRLVQEHKKLLDENKSLSTYYQQCKKQLEVIRSQQQKRQGTS
